{
  "source": "the supplement of paper PMC12067093",
  "about": "“Discovery and optimisation of a covalent ligand for TRIM25 and its application to targeted protein ubiquitination” (Chemical Science, 2025)",
  "note": "Some of the results follow.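 Also: competitive chemoproteomic profiling in live THP-1 cells with an iodoacetamide desthiobiotin (IA-DTB) probe, comparing probe-labelled peptide intensities in compound-treated cells against DMSO-treated controls.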",
  "data": [
    {"compound": "CC1Cc2ccccc2N1C(=O)C1CCCN(C1)C(=O)CCl (mixture of isomers) [TRIM25 ligand 11 (diastereomer mixture)]", "assay": "probe-labelled cysteine peptide fold change vs DMSO (competition) (log2 fold change); higher = less target engagement (more negative = stronger competition)", "conditions": "10 µM; THP-1; incubation time: 4 h", "values": [
      {"target": "HUWE1_Q7Z6Z7_29_VCNDEQLLLELQQIK (UniProt Q7Z6Z7)", "probe-labelled cysteine peptide fold change": 0.287},
      {"target": "IGF2R_P11717_1598_DGSPCPSK (UniProt P11717)", "probe-labelled cysteine peptide fold change": -0.0354},
      {"target": "INPP5B_P32019_475_FQFHNTSICVVNSHLAAHIEEYER (UniProt P32019)", "probe-labelled cysteine peptide fold change": 0.169},
      {"target": "IL18_Q14116_74_NLNDQVLFIDQGNRPLFEDMTDSDCRDNAPR (UniProt Q14116)", "probe-labelled cysteine peptide fold change": -0.0363},
      {"target": "IDH3A_P50213_222_EVAESCK (UniProt P50213)", "probe-labelled cysteine peptide fold change": 0.0547},
      {"target": "ICAM3_P32942_407_ATCPQHLK (UniProt P32942)", "probe-labelled cysteine peptide fold change": -0.0217},
      {"target": "ING2_Q9H160_124_QMELHSQCFQDPAESER (UniProt Q9H160)", "probe-labelled cysteine peptide fold change": -0.0233},
      {"target": "ICAM3_P32942_423_HVLQCQAR (UniProt P32942)", "probe-labelled cysteine peptide fold change": 0.00813},
      {"target": "IKZF1_Q13422_254_EETNHSEMAEDLCK (UniProt Q13422)", "probe-labelled cysteine peptide fold change": 0.0376},
      {"target": "IARS_P41252_185_VMPFSTACNTPLSNFESHQNYK (UniProt P41252)", "probe-labelled cysteine peptide fold change": 0.15},
      {"target": "HUWE1_Q7Z6Z7_1278_MAESMLAILCHILR (UniProt Q7Z6Z7)", "probe-labelled cysteine peptide fold change": 0.0396},
      {"target": "HUWE1_Q7Z6Z7_2721_DQSAQCTASK (UniProt Q7Z6Z7)", "probe-labelled cysteine peptide fold change": 0.0453},
      {"target": "IFT140_Q96RY7_155_HLTHCIFR (UniProt Q96RY7)", "probe-labelled cysteine peptide fold change": 0.268},
      {"target": "ING2_Q9H160_26_LLTCYVQDYLECVESLPHDMQR (UniProt Q9H160)", "probe-labelled cysteine peptide fold change": -0.475},
      {"target": "IKBKG_Q9Y6K9_54_CLEENQELRDAIR (UniProt Q9Y6K9)", "probe-labelled cysteine peptide fold change": -0.189},
      {"target": "IMPA2_O14732_90_CVLTHSPTWIIDPIDGTCNFVHR (UniProt O14732)", "probe-labelled cysteine peptide fold change": 0.168}
    ]}
  ]
}
